The results in this text go back to publication PMC6527568.

Amino acid sequences for entries named in this document (tags omitted).
UniProt P23696: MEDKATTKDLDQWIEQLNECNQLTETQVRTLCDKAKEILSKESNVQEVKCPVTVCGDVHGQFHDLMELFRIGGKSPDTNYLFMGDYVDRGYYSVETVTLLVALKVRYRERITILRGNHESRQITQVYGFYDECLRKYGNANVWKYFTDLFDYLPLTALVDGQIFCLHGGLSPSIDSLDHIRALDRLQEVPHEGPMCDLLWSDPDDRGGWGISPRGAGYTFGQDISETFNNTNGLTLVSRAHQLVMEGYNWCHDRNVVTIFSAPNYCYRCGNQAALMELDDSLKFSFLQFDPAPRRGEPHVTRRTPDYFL

The target of the assay is 2xFLAG-tagged full-length Mts (Drosophila) (UniProt P23696). Put plainly: co-IP; extracts of S2 cells transfected with three constructs together (V5-Vtd, V5-Tws and 2xFLAG-Mts).

Results are given in words; binding and its absence hold for the method and conditions named. Binding seen in cells or lysates may run through a third protein. Some binding calls cover weakened binding; strength is not graded here. Tags and fused reporters may be left off the sequences shown.

B1: V5-tagged-Tws (protein, UniProt P36872 1-499)
chain: MGRWGRQSPVLEPPDPQMQTTPPPPTLPPRTFMRQSSITKIGNMLNTAININGAKKPASNGEASWCFSQIKGALDDDVTDADIISCVEFNHDGELLATGDKGGRVVIFQRDPASKAANPRRGEYNVYSTFQSHEPEFDYLKSLEIEEKINKIRWLQQKNPVHFLLSTNDKTVKLWKVSERDKSFGGYNTKEENGLIRDPQNVTALRVPSVKQIPLLVEASPRRTFANAHTYHINSISVNSDQETFLSADDLRINLWHLEVVNQSYNIVDIKPTNMEELTEVITAAEFHPTECNVFVYSSSKGTIRLCDMRSAALCDRHSKQFEEPENPTNRSFFSEIISSISDVKLSNSGRYMISRDYLSIKVWDLHMETKPIETYPVHEYLRAKLCSLYENDCIFDKFECCWNGKDSSIMTGSYNNFFRVFDRNSKKDVTLEASRDIIKPKTVLKPRKVCTGGKRKKDEISVDCLDFNKKILHTAWHPEENIIAVAATNNLFIFQDKF
Take B1: the binding entry is recorded as “binds”.
